Our source for the binding values is paper PMC6819981.

These are yes or no findings as the source states them, for the method shown. Binding seen in cells or lysates may run through a third protein. Some entries that bind do so weakly or less than the wild type. Sequences can lack the tags named with a protein.

The target in the test is T1, NDK-1::GFP (C. elegans) (UniProt Q93576).
T1 sequence: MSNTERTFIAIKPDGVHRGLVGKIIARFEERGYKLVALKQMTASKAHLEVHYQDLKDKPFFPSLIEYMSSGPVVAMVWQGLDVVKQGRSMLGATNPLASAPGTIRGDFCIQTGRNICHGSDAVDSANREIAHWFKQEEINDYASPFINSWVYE
Kind of test: co-IP; mixed-stage worm extracts (TTV3, N2) in 25 mM HEPES NaOH pH 7.4, 150 mM NaCl, 1 mM DTT, 0.5% Triton X-100, 1 mM EDTA; NDK-1::GFP captured with monoclonal anti-GFP (3E6); blot with polyclonal anti-DYN-1; controls: anti-tubulin mouse IgG, N2 extract.

B1: DYN-1/Dynamin (C. elegans) (protein, UniProt P39055 1-830)
chain: MSWQNQGMQALIPVINRVQDAFSQLGTSVSFELPQIAVVGGQSAGKSSVLENFVGKDFLPRGSGIVTRRPLILQLIQDRNEYAEFLHKKGHRFVDFDAVRKEIEDETDRVTGQNKGISPHPINLRVFSPNVLNLTLIDLPGLTKVPVGDQPADIEQQIRDMILTFINRETCLILAVTPANSDLATSDALKLAKEVDPQGLRTIGVLTKLDLMDEGTDAREILENKLFTLRRGYVGVVNRGQKDIVGRKDIRAALDAERKFFISHPSYRHMADRLGTSYLQHTLNQQLTNHIRDTLPTLRDSLQKKMFAMEKDVAEYKNYQPNDPGRKTKALLQMVTQFNADIERSIEGSSAKLVSTNELSGGARINRLFHERFPFEIVKMEIDEKEMRKEIQYAIRNIHGIRVGLFTPDMAFEAIAKKQITRLKEPSLKCVDLVVNELANVIRQCADTMARYPRLRDELERIVVSHMREREQIAKQQIGLIVDYELAYMNTNHEDFIGFSNAEAKASQGQSAKKNLGNQVIRKGWLSLSNVSFVRGSKDNWFVLMSDSLSWYKDDEEKEKKYMLPLDGVKLKDIEGGFMSRNHKFALFYPDGKNIYKDYKQLELGCTNLDEIDAWKASFLRAGVYPEKQKAQEDESQQEMEDTSIDPQLERQVETIRNLVDSYMRIITKTIKDLVPKAVMHLIVNQTGEFMKDELLAHLYQCGDTDALMEESQIEAQKREEMLRMYHACKEALRIISEVNMSTLGDQPPPLPMSDYRPHPSGPSPVPRPAPAPPGGRQAPMPPRGGPGAPPPPGMRPPPGAPGGGGGMYPPLIPTRPGPGGPPPNMAPPR
Consider B1, for which the binding entry is “binds”.
